Test results taken from PubChem BioAssay AID504932 (Broad Institute, 2011).
The other results are listed elsewhere or left out. Measured potencies and affinities stand elsewhere. Where no call is shown, the source marks the result inconclusive.

Test: PubChem AID 504932
Conditions: cell-based PrP 5' UTR reporter, plate reader; at 5 µM (top of the series)

Row | SMILES | activity change, negative = inhibition [%]
1 | COC(=O)c1[nH]c2c(c1C)C(=O)CC(c1cccc(OC)c1)C2 (configuration not stated) | -35.5
2 | Cc1cccc(C(=O)O/N=C(\N)c2ccccn2)c1 | -80.6
